# Test results: the supplement of paper PMC8728848
# The list shows a part of the results.
# Experiments:
# Experiment in all cases: glycan array binding signal (z-score within array); higher = stronger binding
# Details in all cases: glycan notation: IUPAC condensed, linker removed
# [1] = molecular target: GlcNAc(b1-3)Gal(b1-4)GlcNAc(b1-3)Gal(b1-4)GlcNAc(b1-3)Gal(b1-4)GlcNAc(b1-2)Man(a1-3)[GlcNAc(b1-3)Gal(b1-4)GlcNAc(b1-3)Gal(b1-4)GlcNAc(b1-3)Gal(b1-4)GlcNAc(b1-2)Man(a1-6)]Man(b1-4)GlcNAc(b1-4)[Fuc(a1-6)]GlcNAc
# Procedure, shortened: (§1)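 Glycan array data came from 3228 arrays in the Consortium for Functional Glycomics database, and only arrays with an available protein sequence were kept. Glycan names were put into IUPAC-condensed notation, and columns mapping to the same glycan were averaged. The binding signal is a within-array Z-score, averaged across arrays of one protein sequence run at different concentrations or buffers and across linkers. A negative Z-score can be read as non-binding.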
# [2] = molecular target: GlcNAc(b1-3)Gal(b1-4)GlcNAc(b1-3)Gal(b1-4)GlcNAc(b1-3)Gal(b1-4)GlcNAc(b1-2)[GlcNAc(b1-3)Gal(b1-4)GlcNAc(b1-3)Gal(b1-4)GlcNAc(b1-3)Gal(b1-4)GlcNAc(b1-6)]Man(a1-6)[GlcNAc(b1-3)Gal(b1-4)GlcNAc(b1-3)Gal(b1-4)GlcNAc(b1-3)Gal(b1-4)GlcNAc(b1-2)Man(a1-3)]Man(b1-4)GlcNAc(b1-4)[Fuc(a1-6)]GlcNAc
# Procedure, shortened: as §1
# [3] = molecular target: GlcNAc(b1-3)Gal(b1-4)GlcNAc(b1-3)Gal(b1-4)GlcNAc(b1-3)Gal(b1-4)GlcNAc(b1-3)Gal(b1-4)GlcNAc(b1-2)Man(a1-3)[GlcNAc(b1-3)Gal(b1-4)GlcNAc(b1-3)Gal(b1-4)GlcNAc(b1-3)Gal(b1-4)GlcNAc(b1-3)Gal(b1-4)GlcNAc(b1-2)Man(a1-6)]Man(b1-4)GlcNAc(b1-4)GlcNAc
# Procedure, shortened: as §1
# [4] = molecular target: GlcNAc(b1-3)Gal(b1-4)GlcNAc(b1-3)Gal(b1-4)GlcNAc(b1-3)Gal(b1-4)GlcNAc(b1-3)Gal(b1-4)GlcNAc(b1-2)Man(a1-3)[GlcNAc(b1-3)Gal(b1-4)GlcNAc(b1-3)Gal(b1-4)GlcNAc(b1-3)Gal(b1-4)GlcNAc(b1-3)Gal(b1-4)GlcNAc(b1-2)Man(a1-6)]Man(b1-4)GlcNAc(b1-4)[Fuc(a1-6)]GlcNAc
# Procedure, shortened: as §1
# [5] = molecular target: GlcNAc(b1-3)Gal(b1-4)GlcNAc(b1-3)Gal(b1-4)GlcNAc(b1-3)Gal(b1-4)GlcNAc(b1-3)Gal(b1-4)GlcNAc(b1-2)[GlcNAc(b1-3)Gal(b1-4)GlcNAc(b1-3)Gal(b1-4)GlcNAc(b1-3)Gal(b1-4)GlcNAc(b1-3)Gal(b1-4)GlcNAc(b1-6)]Man(a1-6)[GlcNAc(b1-3)Gal(b1-4)GlcNAc(b1-3)Gal(b1-4)GlcNAc(b1-3)Gal(b1-4)GlcNAc(b1-3)Gal(b1-4)GlcNAc(b1-2)Man(a1-3)]Man(b1-4)GlcNAc(b1-4)[Fuc(a1-6)]GlcNAc
# Procedure, shortened: as §1
# [6] = molecular target: GlcNAc(b1-3)Gal(b1-4)GlcNAc(b1-3)Gal(b1-4)GlcNAc(b1-3)GalNAc
# Procedure, shortened: as §1
# [7] = molecular target: GlcNAc(b1-3)Gal(b1-4)GlcNAc(b1-3)GalNAc
# Procedure, shortened: as §1
# [8] = molecular target: GlcNAc(b1-3)Gal(b1-4)GlcNAc(b1-3)[GlcNAc(b1-3)Gal(b1-4)GlcNAc(b1-3)]GalNAc
# Procedure, shortened: as §1
# [9] = molecular target: GlcNAc(b1-3)Gal(b1-4)GlcNAc(b1-6)[Gal(b1-3)]GalNAc
# Procedure, shortened: as §1
# [10] = molecular target: GlcNAc(b1-3)Gal(b1-4)GlcNAc(b1-6)[GlcNAc(b1-3)Gal(b1-3)]GalNAc
# Procedure, shortened: as §1
# [11] = molecular target: GlcNAc(b1-3)Gal(b1-4)GlcNAc(b1-6)[GlcNAc(b1-3)]Gal(b1-4)GlcNAc
# Procedure, shortened: as §1
# GlcNAc(b1-3)GalNAc = molecular target: GlcNAc(b1-3)GalNAc
# Procedure, shortened: as §1
# GlcNAc(b1-3)Man = molecular target: GlcNAc(b1-3)Man
# Procedure, shortened: as §1
# [12] = molecular target: GlcNAc(b1-3)[GlcNAc(b1-4)][GlcNAc(b1-6)]GlcNAc
# Procedure, shortened: as §1
# [13] = molecular target: GlcNAc(b1-3)[GlcNAc(b1-6)]Gal(b1-4)GlcNAc
# Procedure, shortened: as §1
# [14] = molecular target: GlcNAc(b1-3)[GlcNAc(b1-6)]GalNAc
# Procedure, shortened: as §1
# [15] = molecular target: GlcNAc(b1-4)Gal(b1-4)GlcNAc
# Procedure, shortened: as §1
# GlcNAc(b1-4)GlcNAc = molecular target: GlcNAc(b1-4)GlcNAc
# Procedure, shortened: as §1
# [16] = molecular target: GlcNAc(b1-4)GlcNAc(b1-4)GlcNAc
# Procedure, shortened: as §1
binder,measurement,setting,value
"AT5G24760(45) (Arabidopsis thaliana), Q8LEB2 (protein) MSASSSSFEQPQVITCNAAVAWRAGEPLVMEEVEVSPPQPLEIRIKVVCTSLCRSDLSAWESQSLLPRIFGHEAAGIVESIGEGVTEFEKGDHVLAVFTGECGSCRHCISGKSNMCQVLGMERKGLMHSDQKTRFSIKGKPVYHYCAVSSFSEYTVVHSGCAVKVDPLAPLHKICLLSCGVAAGLGAAWNVADVQKGSSVVIFGLGTVGLSVAQGAKLRGAAQILGVDINPAKAEQAKTFGVTDFINSNDLSEPIPQVIKRMTGGGADFSFECVGDTGIATTALQSCSDGWGMTVTLGVPKAKPEVSAHYGLFLSGKSLKGTLFGGWKPKSDLPSLIDKYMNKEIMIDEFITHNLSFDEINKAFVLMREGKCLRCVLHMPK",glycan array binding signal (z-score),[1],0.079
same,glycan array binding signal (z-score),[2],0.813
same,glycan array binding signal (z-score),[3],-0.261
same,glycan array binding signal (z-score),[4],0.106
same,glycan array binding signal (z-score),[5],0.881
same,glycan array binding signal (z-score),[6],-0.514
same,glycan array binding signal (z-score),[7],-0.998
same,glycan array binding signal (z-score),[8],-0.426
same,glycan array binding signal (z-score),[9],-0.295
same,glycan array binding signal (z-score),[10],-0.178
same,glycan array binding signal (z-score),[11],-0.616
same,glycan array binding signal (z-score),GlcNAc(b1-3)GalNAc,-0.519
same,glycan array binding signal (z-score),GlcNAc(b1-3)Man,1.28
same,glycan array binding signal (z-score),[12],0.138
same,glycan array binding signal (z-score),[13],0.495
same,glycan array binding signal (z-score),[14],0.1
same,glycan array binding signal (z-score),[15],2.53
same,glycan array binding signal (z-score),GlcNAc(b1-4)GlcNAc,0.352
same,glycan array binding signal (z-score),[16],0.93

# 2 records drawn at random from those above, as already listed:
binder,measurement,setting,value
"AT5G24760(45) (Arabidopsis thaliana), Q8LEB2 (protein) MSASSSSFEQPQVITCNAAVAWRAGEPLVMEEVEVSPPQPLEIRIKVVCTSLCRSDLSAWESQSLLPRIFGHEAAGIVESIGEGVTEFEKGDHVLAVFTGECGSCRHCISGKSNMCQVLGMERKGLMHSDQKTRFSIKGKPVYHYCAVSSFSEYTVVHSGCAVKVDPLAPLHKICLLSCGVAAGLGAAWNVADVQKGSSVVIFGLGTVGLSVAQGAKLRGAAQILGVDINPAKAEQAKTFGVTDFINSNDLSEPIPQVIKRMTGGGADFSFECVGDTGIATTALQSCSDGWGMTVTLGVPKAKPEVSAHYGLFLSGKSLKGTLFGGWKPKSDLPSLIDKYMNKEIMIDEFITHNLSFDEINKAFVLMREGKCLRCVLHMPK",glycan array binding signal (z-score),[1],0.079
same,glycan array binding signal (z-score),[4],0.106
